Assay results: US20240158386A1, “BENZOXAZOLONE INHIBITORS OF INFLAMMASOMES” (ICAHN SCHOOL OF MEDICINE AT MOUNT SINAI, priority 2021, published 2024)
Some entries of the source have several records that differ or are many. This is not the full list of results. An entry can have further records. The values listed for one entry do not match, cause unknown; dose, time, organism, isomer or construct need not be as stated for each record.

By UniProt entry, the sequences of proteins in these tests, tags left out.
UniProt Q8R4B8, whole entry: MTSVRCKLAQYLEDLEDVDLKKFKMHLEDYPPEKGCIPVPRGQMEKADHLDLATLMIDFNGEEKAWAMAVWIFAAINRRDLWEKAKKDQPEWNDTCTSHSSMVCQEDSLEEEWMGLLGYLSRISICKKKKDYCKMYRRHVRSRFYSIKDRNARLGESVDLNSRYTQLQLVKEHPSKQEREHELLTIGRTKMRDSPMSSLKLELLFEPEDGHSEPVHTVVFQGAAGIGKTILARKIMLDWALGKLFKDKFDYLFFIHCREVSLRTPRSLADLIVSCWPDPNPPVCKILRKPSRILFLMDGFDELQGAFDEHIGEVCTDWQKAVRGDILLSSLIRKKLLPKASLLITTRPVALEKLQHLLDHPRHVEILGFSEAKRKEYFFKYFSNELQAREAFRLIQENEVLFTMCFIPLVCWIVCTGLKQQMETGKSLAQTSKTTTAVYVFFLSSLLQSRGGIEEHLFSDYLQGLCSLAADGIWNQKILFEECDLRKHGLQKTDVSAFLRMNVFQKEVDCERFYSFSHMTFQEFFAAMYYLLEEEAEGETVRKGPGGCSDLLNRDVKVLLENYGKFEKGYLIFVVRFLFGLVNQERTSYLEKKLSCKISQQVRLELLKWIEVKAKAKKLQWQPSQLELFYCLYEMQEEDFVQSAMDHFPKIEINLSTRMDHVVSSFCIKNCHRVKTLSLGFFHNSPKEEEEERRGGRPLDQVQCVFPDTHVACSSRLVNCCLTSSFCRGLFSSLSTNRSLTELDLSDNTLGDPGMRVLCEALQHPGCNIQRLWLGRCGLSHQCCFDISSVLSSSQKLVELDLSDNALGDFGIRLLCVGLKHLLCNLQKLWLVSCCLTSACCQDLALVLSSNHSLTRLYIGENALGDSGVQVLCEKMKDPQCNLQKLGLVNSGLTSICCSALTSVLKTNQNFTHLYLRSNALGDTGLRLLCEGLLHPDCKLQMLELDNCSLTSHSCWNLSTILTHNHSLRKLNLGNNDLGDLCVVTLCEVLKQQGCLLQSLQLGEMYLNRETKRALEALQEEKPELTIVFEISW

Target: NLRP3 inflammasome (Mus musculus, UniProt Q8R4B8)
Assay: NLRP3 inflammasome activation assay: IL-1β release by primary microglia after LPS and ATP
Details: 100 μM compound
Experimental: Murine primary microglia. Mixed cortical cultures were prepared as previously described (Bronstein, R. et al. J. Vis. Exp. JoVE 50647 (2013) doi:10.3791/50647). Briefly, cortices from 2-3 days old, WT, or NLRP3 KO pups were isolated, digested, and seeded at a density of 8 cortices per 10 ml petri dish. Every three days, the medium was replaced by fresh culture medium (DMEM, 10% FBS, 1% penicillin-streptomycin). After three weeks, mixed glial cultures had reached confluence, and microglia cells were isolated by mild trypsinization as previously described (Saura, J. et al. Glia 44, 183-189 (2003)). […] Cells were counted and seeded at the desired density, typically 7.5·10^4 cells/well in 24 well-plates. […]
Cytokine quantification. IL-1β in cell supernatants and brain tissue samples—after the different treatment groups—was quantified using the Mouse IL-1 beta/IL-1F2 DuoSet ELISA kit (R&D systems), IL-6 in cell culture supernatant was measured through the Mouse IL-6 ELISA kit (ThermoFisher), TNF-α in cell culture supernatants was determined using the Mouse TNF-alpha DuoSet ELISA (R*D systems), and IL-18 in brain tissue was measured through the IL-18 Mouse ELISA Kit (Invitrogen) following the manufacturers' recommended protocol. IL-1β precursor and cleaved IL-1β in the FC of mice treated with vehicles, LPS, or C77-LPS was assessed by western blot. […]

O=c1[nH]nc(-c2ccc(OCc3ccc(F)cc3)cc2)o1
inhibition of IL-1β release upon NLRP3 activation: completely inhibited IL-1β and completely prevented IL-1β secretion
